# Primary screen of a compound library

Chains of the proteins cited; added tags and fusions are not shown.
UniProt E9BF75, entry or part of it: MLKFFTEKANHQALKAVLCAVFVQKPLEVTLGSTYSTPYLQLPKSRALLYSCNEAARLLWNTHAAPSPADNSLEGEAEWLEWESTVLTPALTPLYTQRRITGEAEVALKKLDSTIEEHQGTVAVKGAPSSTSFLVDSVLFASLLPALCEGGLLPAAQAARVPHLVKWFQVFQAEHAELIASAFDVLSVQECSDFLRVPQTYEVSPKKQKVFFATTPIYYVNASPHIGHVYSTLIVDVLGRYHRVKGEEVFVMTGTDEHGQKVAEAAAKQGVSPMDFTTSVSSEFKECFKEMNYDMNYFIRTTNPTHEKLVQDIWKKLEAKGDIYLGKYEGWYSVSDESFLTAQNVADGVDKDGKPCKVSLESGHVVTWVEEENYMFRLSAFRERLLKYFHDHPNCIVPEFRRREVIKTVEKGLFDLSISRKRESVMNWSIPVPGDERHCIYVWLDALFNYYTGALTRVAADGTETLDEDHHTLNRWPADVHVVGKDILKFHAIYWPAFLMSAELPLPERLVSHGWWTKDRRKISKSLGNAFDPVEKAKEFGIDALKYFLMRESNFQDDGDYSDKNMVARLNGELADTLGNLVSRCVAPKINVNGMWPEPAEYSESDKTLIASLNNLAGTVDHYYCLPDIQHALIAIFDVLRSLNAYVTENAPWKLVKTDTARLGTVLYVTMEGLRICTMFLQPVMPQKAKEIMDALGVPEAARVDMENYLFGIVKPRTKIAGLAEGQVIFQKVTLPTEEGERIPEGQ

The values are deposited in ChEMBL (CHEMBL3988442, “University of Dundee, Small-Polar-MMV Screening Library” (2021)).

All values are in %. The controls that fix the scale are not given in the record; negative values are as filed. Compounds were drawn at random from those tested, without regard to their results. A dash means the value is not listed here; it may have been measured.

LdMetRS: 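Primary screen of methionyl-tRNA synthetase; the read-out is not stated. Target: Methionyl-tRNA synthetase (putative), Leishmania donovani (UniProt E9BF75). The test concentration is not given. Values are per cent inhibition. About 68,000 compounds were tested under these conditions; 0.035% (about 24) showed 50% or more at least once.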
Mtb heat-shock: 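Assay on Mycobacterium tuberculosis, filed only as a heat shock assay from Cornell; the read-out is not stated. The concentration is filed as 10 mM, unlikely as a test dose, so the dose is not known. Direction is inferred from retests: higher values go with stronger inhibition. Size under these conditions: about 69,000 compounds, about 930 of them at 50% or above in at least one test.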

| # | SMILES | LdMetRS | Mtb heat-shock |
|---|---|---|---|
| 1 | `O=C(O)C(F)(F)F.O=S(=O)(C1CC1)N1CC[C@]2(C[C@@H](Oc3ccccn3)CO2)C1` | - | 5.835 |
| 2 | `[H][C@]12CCN(Cc3cccc(C)c3)[C@@]1([H])C[C@H](C(=O)N1CCN(C)CC1)O2` | - | 22.66 |
| 3 | `N#Cc1ccccc1N1CCCN(C(=O)CCn2cccn2)CC1` | 7.042 | 14.27 |
| 4 | `c1cncc(OCCCNC2COc3ccccc3C2)c1` (stereo unspecified) | 14.88 | -1.62 |
| 5 | `Cc1nn(-c2ccc(C(=O)O)cc2)c2c1C(CC(C)C)SCC(=O)N2` (stereo unspecified) | 12.94 | 10.09 |
| 6 | `CN(Cc1cccc(C(N)=O)c1)CC1CCCN1c1cccnn1` (stereo unspecified) | 22.1 | -0.6994 |
| 7 | `O=C(c1ccncc1)N1CCn2c(nnc2-c2ccccc2)C1` | 20.92 | 8.487 |
| 8 | `Cc1cccc(CNC2(CCO)CCOCC2)c1C` | 5.319 | 1.689 |
| 9 | `Cc1occc1C(=O)N1CCCS1(=O)=O` | 16.67 | -0.4746 |
| 10 | `CS(=O)(=O)NCCCN1CCCC1c1cccc(Br)c1` (stereo unspecified) | 21.69 | -9.337 |
| 11 | `Cn1cc(CN2C[C@@H]3CCCO[C@@H]3[C@H](NC(=O)CC3CC3)C2)cn1` | 9.63 | - |
| 12 | `O=C(O)c1ccc2c(CN3CCCC3)c[nH]c2c1` | 11.8 | -11.34 |
| 13 | `Cc1cc(CN(C)C(=O)c2ccnc(N(C)C)c2)no1` | 11.89 | 8.67 |
| 14 | `O=C(NCC(O)c1ccccc1Cl)c1cccc(-n2cnnn2)c1` (stereo unspecified) | 11.33 | -1.274 |
| 15 | `Cc1[nH]c2c(C)cccc2c1CC(=O)N(C)CCN(C)C.O=C(O)CC(O)(CC(=O)O)C(=O)O` | - | -13.66 |
| 16 | `[H][C@@]12CN(Cc3ccsc3)C[C@]1([H])N(Cc1ccccn1)C(=O)O2` | - | -3.069 |
| 17 | `CCOc1cc(CNCCCn2ccnc2)cc(Cl)c1OCC` | -7.532 | -1.53 |
| 18 | `CC(CNC(=O)c1ccn(-c2ccc(F)cc2)n1)Cn1cccn1` (stereo unspecified) | 14.24 | -1.006 |
| 19 | `Cc1cnc(CCNC(=O)NCCOc2ncccc2Cl)s1` | 7.711 | 17.6 |
| 20 | `Cc1cccc(SC2CCN(Cc3nc(CC4CC4)no3)CC2)c1` | 14.65 | -39.15 |
| 21 | `O=C(CSC1=NS(=O)(=O)c2cc(F)ccc2N1)Nc1ccc(Cl)cc1` | 2.87 | -10.29 |
| 22 | `c1cncc(CNCc2cccs2)c1` | -0.5249 | - |
| 23 | `CC(C)(C)c1n[nH]c(C2CN(C(=O)c3cnc[nH]3)CCO2)n1` (stereo unspecified) | 12.58 | -4.092 |
| 24 | `CC1=N[C@@]2(CC[C@@H]3CN(C(=O)NCC(C)C)C[C@@H]32)C(=O)N1C` | 15.96 | - |
| 25 | `[H][C@]12CNCCN1C[C@@H](C(=O)OCC)[C@@H]2c1ccccc1` | - | 7.897 |
| 26 | `CC(=O)N1CCOCC2(CN(Cc3ccc(C)o3)CCO2)C1.O=C(O)C(F)(F)F` (stereo unspecified) | - | -11.8 |
| 27 | `COC(=O)[C@H](C)NC(=O)COc1nn(C)c2nc(C)cc(C)c12` | 10.15 | 6.334 |
| 28 | `CC(C#N)CSc1ccccc1NCC(=O)NCc1ccccc1` (stereo unspecified) | 11.33 | 2.071 |
| 29 | `CCn1cnnc1CNC(=O)N1CCN(Cc2ccccc2)CC1` | 15.97 | -9.818 |
| 30 | `Cc1nc(C)n(CC2CCCN2CCOc2ccc(F)cc2)n1` (stereo unspecified) | 13.8 | -15.88 |
| 31 | `Cc1ccccc1CCNC(=O)CN1CCCC(Cn2cncn2)C1` (stereo unspecified) | 27.46 | -4.29 |
| 32 | `CCN1CCCC(CNC(=O)CCc2ccc(OC)c(F)c2)C1` (stereo unspecified) | -2.198 | 3.891 |
| 33 | `COC(=O)CSCc1noc(-c2ccc(Cl)cc2)n1` | 11.78 | -139.5 |
| 34 | `CN(Cc1cccnc1)[C@@H]1CN(c2ncc(F)cn2)[C@@H]2CCCO[C@H]12` | 11.23 | - |
| 35 | `[H][C@]12CN(Cc3cccc(OC(F)(F)F)c3)CCN1C(=O)N(CCOC)C2` | - | -38.04 |
| 36 | `O=c1c(NCCc2ccc(O)cc2)c(NCc2ccncc2)c1=O` | 19.83 | -3.714 |
| 37 | `O=C(Nc1ccc2c(c1)OCO2)N1CCCC1c1ccco1` (stereo unspecified) | 3.559 | -7.402 |
| 38 | `COc1ccc2c(OCC(=O)NCC(F)(F)F)ccnc2c1` | 16.27 | 11.24 |
| 39 | `c1cnn(CC2CN(Cc3noc(C4CC4)n3)CCO2)c1` (stereo unspecified) | 18.88 | -17.64 |
| 40 | `OCC1(O)CCCN(Cc2noc(-c3ccccc3)n2)CC1` (stereo unspecified) | 10.18 | 2.658 |
| 41 | `Cc1cc2c(cc1Cl)C=CC1(CCN(CC(=O)N3CCCC3)CC1)O2` | 24.84 | 3.748 |
| 42 | `COc1ccccc1OC1CN(C(=O)C(c2ccccc2F)N(C)C)C1` (stereo unspecified) | 16.85 | -16.14 |
| 43 | `CC(=O)N1Cc2cnc(C(C)(C)C)nc2C1` | -9.966 | -20.4 |
| 44 | `COC(CNC(=O)NCc1c(C)cc(C)[nH]c1=O)c1ccccc1` (stereo unspecified) | 20 | -8.916 |
| 45 | `CCC(=O)N1CC[C@H](O)[C@@H]1Cc1ccccc1` | 15.71 | 10.21 |
| 46 | `Cc1ccoc1C(=O)N1C[C@H]2CCC[C@@]2(COCc2ccncc2)C1` | 21.57 | - |
| 47 | `CC(Oc1ccccc1C#N)C(=O)NC1CC1` (stereo unspecified) | 3.039 | 12.19 |
| 48 | `CC(C)c1[nH]c2ncccc2c1CN1CCC(O)CC1` | 17.02 | 6.997 |
| 49 | `CCn1nc(C)c(-c2cncn2CCN(C)C2CCCC2)c1C` | 14.92 | - |
| 50 | `COCCNC(=O)CN(C)Cc1ccc(F)cc1Cl` | 8.614 | -15.74 |
| 51 | `COCCN(C)c1cnn(C)c(=O)c1Br` | 6.192 | -3.894 |
| 52 | `O=C(O)C(F)(F)F.O=C(O)C(F)(F)F.[H][C@@]12C[C@@H](Oc3cccc(F)c3)CN1CCN(Cc1ccccn1)C2` | - | -4.618 |
| 53 | `[H][C@@]12OCCN(c3ncccn3)[C@@]1([H])CC[C@H]2OCc1cccnc1` | - | -23.88 |
| 54 | `Cc1ccccc1N1CC2(CCN(Cc3nccn3C)C2)CC1=O.O=C(O)C(F)(F)F` (stereo unspecified) | - | -9.643 |
| 55 | `COc1cc(N2C[C@H](C(=O)NC3CC3)[C@@H]3CCO[C@@H]3C2)ncn1` | 8.75 | - |
| 56 | `[H][C@]12COC[C@H](N(CC)CC)[C@@]1([H])CN(Cc1cnn(C)c1)C2` | - | -15.85 |
| 57 | `CN1CCN(c2ccc(NCc3ccc([S+](C)[O-])cc3)cn2)CC1` (stereo unspecified) | 4.348 | -10.65 |
| 58 | `O=C(O)[C@]12CN(CC3CCC3)C[C@H]1CN(c1cnccn1)C2` | 7.292 | - |
| 59 | `COCc1nc(C(=O)N2CCCC2c2c(C)nn(C)c2C)cs1` (stereo unspecified) | 15.97 | -9.56 |
| 60 | `Cc1nn(-c2ccccn2)c2c1C(c1cnn(C)c1)SCC(=O)N2` (stereo unspecified) | 13.64 | 10.65 |
| 61 | `CC(C)n1cc(S(=O)(=O)N2CCCCC2)cn1` | 12.86 | -2.868 |
| 62 | `CCNc1nc(C(=O)N(C)Cc2nc(CC)no2)cs1` | 14.37 | -23.03 |
| 63 | `Cc1ncncc1C(=O)N1C[C@H]2CC[C@@H]1CN(C(=O)c1ccncc1)C2` | 1.299 | - |
| 64 | `CCCc1noc(-c2ccc(-n3ncc(C(=O)O)c3C)nc2)n1` | 8.043 | -9.433 |

3 of the entries, repeated:

{"smiles": "Cc1nn(-c2ccccn2)c2c1C(c1cnn(C)c1)SCC(=O)N2", "stereo": "stereo unspecified", "LdMetRS": 13.64, "Mtb heat-shock": 10.65}
{"smiles": "O=C(O)c1ccc2c(CN3CCCC3)c[nH]c2c1", "LdMetRS": 11.8, "Mtb heat-shock": -11.34}
{"smiles": "CC1=N[C@@]2(CC[C@@H]3CN(C(=O)NCC(C)C)C[C@@H]32)C(=O)N1C", "LdMetRS": 15.96}